The text below walks through data of the supplement of paper PMC10849652.

Chains of the proteins cited; added tags and fusions are not shown. Lines headed by an entry give the natural chain unless they say otherwise; changes in a name come on top.
UniProt Q86YT6, whole entry, looked up: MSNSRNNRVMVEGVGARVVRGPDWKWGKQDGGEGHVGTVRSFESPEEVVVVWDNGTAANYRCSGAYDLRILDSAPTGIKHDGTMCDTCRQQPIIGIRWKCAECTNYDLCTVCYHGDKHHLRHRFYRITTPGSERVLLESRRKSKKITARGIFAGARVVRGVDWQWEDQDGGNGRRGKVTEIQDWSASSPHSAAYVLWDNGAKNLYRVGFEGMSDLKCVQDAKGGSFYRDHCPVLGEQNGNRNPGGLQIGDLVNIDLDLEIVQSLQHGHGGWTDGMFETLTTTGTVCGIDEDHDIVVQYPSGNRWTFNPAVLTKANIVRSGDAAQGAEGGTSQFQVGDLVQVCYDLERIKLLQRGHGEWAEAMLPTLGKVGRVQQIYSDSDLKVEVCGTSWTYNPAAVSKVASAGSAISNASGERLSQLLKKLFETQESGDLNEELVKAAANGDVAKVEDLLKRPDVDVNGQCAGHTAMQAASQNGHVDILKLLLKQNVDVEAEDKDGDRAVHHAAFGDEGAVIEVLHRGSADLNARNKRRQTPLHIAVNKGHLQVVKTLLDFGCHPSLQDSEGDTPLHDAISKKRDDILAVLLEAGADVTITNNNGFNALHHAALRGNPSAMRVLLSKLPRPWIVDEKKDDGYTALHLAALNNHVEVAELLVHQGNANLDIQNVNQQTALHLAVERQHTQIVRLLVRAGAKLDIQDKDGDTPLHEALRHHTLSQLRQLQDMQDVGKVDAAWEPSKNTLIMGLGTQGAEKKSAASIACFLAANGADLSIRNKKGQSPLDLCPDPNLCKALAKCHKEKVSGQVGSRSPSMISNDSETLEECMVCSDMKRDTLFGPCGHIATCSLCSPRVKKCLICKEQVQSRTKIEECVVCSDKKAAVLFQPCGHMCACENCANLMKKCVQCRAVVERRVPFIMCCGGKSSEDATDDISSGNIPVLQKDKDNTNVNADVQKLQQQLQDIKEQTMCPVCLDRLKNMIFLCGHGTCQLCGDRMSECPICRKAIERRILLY
UniProt P49736, whole entry, looked up: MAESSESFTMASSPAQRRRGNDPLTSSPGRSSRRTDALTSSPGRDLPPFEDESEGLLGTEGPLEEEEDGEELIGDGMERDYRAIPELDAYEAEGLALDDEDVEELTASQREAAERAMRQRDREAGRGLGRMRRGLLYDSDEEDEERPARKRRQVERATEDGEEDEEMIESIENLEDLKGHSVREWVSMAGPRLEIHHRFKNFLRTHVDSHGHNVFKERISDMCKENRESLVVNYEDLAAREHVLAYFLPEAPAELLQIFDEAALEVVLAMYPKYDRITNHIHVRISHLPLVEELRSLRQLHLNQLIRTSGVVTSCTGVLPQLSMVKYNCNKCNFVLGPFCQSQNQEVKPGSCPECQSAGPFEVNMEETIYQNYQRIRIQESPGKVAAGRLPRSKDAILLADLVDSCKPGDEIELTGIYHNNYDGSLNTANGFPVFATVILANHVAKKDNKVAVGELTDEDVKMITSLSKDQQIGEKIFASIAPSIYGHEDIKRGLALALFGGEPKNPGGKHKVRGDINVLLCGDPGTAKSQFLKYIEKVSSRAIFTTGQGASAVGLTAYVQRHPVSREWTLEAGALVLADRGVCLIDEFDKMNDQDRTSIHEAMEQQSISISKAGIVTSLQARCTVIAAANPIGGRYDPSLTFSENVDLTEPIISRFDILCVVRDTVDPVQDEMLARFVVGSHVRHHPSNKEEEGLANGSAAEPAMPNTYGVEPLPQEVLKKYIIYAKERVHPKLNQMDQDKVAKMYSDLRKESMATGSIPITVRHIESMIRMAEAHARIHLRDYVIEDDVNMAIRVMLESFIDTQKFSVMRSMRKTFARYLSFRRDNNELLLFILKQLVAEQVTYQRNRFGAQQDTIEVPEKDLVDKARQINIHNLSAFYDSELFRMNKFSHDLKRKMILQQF
UniProt Q14696: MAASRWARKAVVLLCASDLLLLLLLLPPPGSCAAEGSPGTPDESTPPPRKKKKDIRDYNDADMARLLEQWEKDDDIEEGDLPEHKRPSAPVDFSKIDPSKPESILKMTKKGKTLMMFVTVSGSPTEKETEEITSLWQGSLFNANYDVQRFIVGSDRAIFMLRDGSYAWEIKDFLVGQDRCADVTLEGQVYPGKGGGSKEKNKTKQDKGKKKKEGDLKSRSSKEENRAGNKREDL
UniProt Q9H8H3: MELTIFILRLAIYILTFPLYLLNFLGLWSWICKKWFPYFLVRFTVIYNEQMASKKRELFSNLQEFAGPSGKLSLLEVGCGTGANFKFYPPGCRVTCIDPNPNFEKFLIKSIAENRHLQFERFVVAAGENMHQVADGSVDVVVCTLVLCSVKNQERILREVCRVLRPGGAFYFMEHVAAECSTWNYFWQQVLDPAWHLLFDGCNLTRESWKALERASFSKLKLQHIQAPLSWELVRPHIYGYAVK
UniProt Q9NRN9: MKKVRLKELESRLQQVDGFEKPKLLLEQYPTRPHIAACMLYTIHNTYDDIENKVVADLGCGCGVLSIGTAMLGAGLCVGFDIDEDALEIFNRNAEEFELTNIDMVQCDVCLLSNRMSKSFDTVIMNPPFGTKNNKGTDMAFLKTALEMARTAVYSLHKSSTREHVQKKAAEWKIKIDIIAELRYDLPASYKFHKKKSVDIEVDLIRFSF
UniProt Q9BV79: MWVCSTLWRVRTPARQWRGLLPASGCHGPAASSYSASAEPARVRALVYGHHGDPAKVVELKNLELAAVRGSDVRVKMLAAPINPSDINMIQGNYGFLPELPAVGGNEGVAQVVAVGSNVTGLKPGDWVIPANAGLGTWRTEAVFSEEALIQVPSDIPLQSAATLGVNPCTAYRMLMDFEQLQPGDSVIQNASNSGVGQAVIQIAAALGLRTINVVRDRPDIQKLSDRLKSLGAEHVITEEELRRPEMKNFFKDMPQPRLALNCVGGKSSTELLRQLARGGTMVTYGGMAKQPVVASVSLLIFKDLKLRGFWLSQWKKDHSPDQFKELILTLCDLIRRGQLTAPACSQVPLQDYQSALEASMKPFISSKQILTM
UniProt Q6P1Q9: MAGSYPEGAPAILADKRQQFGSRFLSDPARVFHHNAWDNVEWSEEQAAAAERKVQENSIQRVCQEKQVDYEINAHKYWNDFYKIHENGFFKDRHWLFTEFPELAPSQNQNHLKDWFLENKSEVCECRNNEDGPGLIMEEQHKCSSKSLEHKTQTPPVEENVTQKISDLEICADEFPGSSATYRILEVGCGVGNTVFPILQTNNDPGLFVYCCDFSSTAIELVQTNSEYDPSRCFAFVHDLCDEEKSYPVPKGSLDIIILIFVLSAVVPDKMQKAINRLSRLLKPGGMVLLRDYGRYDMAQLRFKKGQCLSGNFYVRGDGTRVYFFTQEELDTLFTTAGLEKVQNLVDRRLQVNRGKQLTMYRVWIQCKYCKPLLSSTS
UniProt Q06413, whole entry, looked up: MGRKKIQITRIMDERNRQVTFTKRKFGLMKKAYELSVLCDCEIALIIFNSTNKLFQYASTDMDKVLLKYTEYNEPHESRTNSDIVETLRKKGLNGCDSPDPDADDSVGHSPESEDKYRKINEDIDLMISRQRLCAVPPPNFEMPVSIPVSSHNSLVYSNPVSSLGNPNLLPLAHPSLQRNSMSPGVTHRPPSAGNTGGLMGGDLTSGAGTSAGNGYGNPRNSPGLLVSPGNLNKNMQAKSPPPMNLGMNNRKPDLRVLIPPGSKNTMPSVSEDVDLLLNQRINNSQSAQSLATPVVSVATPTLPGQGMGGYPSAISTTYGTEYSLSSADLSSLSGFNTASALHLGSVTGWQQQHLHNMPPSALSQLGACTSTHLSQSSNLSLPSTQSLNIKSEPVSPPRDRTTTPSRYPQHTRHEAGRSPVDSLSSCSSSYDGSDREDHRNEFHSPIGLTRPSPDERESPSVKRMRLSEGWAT
UniProt P25205: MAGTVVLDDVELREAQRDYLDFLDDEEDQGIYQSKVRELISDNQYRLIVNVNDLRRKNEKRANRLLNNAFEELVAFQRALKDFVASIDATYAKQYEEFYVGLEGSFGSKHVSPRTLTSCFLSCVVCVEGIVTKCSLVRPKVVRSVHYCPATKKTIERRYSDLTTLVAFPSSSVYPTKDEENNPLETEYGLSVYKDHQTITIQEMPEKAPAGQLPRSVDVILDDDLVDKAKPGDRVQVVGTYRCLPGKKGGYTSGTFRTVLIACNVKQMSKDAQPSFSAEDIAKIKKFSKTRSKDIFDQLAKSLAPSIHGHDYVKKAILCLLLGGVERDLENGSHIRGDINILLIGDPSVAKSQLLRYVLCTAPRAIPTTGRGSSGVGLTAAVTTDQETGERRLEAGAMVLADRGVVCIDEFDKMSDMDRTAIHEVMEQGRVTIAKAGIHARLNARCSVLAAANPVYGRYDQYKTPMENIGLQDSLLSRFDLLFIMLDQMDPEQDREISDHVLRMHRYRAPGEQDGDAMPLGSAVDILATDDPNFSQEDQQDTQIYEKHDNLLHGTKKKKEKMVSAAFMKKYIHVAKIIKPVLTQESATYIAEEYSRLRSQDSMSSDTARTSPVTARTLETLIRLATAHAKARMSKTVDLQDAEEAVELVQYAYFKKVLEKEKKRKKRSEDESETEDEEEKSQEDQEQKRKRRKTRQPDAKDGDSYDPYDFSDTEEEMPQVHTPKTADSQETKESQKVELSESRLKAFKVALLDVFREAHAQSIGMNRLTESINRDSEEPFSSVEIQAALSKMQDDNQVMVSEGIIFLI
UniProt Q9HCC0: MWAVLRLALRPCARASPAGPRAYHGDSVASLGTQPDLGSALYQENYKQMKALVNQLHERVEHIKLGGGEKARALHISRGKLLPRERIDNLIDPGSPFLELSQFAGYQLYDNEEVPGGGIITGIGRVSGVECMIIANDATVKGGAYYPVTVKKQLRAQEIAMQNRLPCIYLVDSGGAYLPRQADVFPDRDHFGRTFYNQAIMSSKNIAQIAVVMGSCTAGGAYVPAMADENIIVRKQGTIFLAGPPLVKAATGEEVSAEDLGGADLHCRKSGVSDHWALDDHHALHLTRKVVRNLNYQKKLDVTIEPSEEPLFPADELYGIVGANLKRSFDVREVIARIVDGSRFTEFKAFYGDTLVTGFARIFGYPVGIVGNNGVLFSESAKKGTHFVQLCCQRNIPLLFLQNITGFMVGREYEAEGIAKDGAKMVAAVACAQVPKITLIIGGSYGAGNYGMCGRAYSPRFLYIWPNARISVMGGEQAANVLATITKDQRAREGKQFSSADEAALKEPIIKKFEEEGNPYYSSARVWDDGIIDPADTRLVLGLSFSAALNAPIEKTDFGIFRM
UniProt Q8TCB7: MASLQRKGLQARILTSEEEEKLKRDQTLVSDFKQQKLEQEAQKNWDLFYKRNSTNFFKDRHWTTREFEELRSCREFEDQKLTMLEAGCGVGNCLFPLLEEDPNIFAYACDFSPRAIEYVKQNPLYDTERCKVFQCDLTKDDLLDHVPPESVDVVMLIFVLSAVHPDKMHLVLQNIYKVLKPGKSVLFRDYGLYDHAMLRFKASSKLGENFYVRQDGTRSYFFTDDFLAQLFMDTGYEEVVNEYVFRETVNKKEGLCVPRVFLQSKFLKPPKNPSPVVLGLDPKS
UniProt Q9BUE0: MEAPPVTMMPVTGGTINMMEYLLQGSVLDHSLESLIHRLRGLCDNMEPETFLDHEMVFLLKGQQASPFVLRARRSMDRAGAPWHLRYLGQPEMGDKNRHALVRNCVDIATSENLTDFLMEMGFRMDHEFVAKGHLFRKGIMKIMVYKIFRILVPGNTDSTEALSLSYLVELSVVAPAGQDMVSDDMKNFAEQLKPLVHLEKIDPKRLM
UniProt P55081: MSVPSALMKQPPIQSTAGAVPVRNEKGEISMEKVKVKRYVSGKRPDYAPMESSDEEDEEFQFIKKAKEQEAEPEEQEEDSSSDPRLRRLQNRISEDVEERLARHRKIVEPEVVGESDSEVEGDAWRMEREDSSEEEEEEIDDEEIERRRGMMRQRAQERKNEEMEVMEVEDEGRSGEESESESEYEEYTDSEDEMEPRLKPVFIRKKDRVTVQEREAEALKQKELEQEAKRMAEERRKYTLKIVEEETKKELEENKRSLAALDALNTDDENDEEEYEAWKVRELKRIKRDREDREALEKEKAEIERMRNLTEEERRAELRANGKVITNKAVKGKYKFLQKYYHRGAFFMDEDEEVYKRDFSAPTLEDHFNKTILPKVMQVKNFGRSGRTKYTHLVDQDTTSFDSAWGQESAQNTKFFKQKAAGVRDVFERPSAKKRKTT
UniProt Q14728: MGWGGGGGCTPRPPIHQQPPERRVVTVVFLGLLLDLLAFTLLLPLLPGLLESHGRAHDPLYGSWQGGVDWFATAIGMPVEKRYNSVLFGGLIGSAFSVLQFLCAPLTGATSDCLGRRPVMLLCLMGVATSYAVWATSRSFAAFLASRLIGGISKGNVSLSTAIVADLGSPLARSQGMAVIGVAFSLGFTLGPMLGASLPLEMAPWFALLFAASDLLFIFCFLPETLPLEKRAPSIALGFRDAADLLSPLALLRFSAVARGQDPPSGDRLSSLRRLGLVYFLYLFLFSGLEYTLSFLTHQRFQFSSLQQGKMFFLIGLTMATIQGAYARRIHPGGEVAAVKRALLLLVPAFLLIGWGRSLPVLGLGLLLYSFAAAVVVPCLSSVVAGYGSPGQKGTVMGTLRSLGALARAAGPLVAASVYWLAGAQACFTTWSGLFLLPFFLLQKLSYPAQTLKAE

This is one part of the list.

Compound in the assay: Cc1cccc(CC(=O)N2CCc3c2ccc(-c2cn(C)c4ncnc(N)c24)c3F)n1
The assay is described as follows: log2 fold change, soluble protein after heating vs DMSO (PISA); higher = thermal stabilisation; K562 cells, 10 uM, 30 min; active = over 0.2 and 3.5 SD of the protein, either way, in both replicates (recomputed). The procedure, abridged:
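K562 cells at 2×10^6 cells/mL were treated for 30 min with 10 μM compound, and aliquots were heated for 3 min over 48°C-58°C before pooling. Extraction used PBS with 0.5% NP-40 at 4°C, and soluble protein was the supernatant after 21,000xg for 90 min, measured by TMTpro 16plex LC-MS/MS with channel sums equalised. Thermal stability values, relative to control samples and from duplicates, are log2 fold changes.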
For the target MIB1 (UniProt Q86YT6), the log2 fold change is inactive: 0.16.

With MCM2 (UniProt P49736), the log2 fold change is inactive: 0.021.

On to MESD (UniProt Q14696), for which the log2 fold change is inactive: -0.025.

Take MCRIP1 (UniProt I3L4Q0): the log2 fold change was inactive: -0.099.

As to MDN1 (UniProt Q9NU22), the log2 fold change is inactive: 0.

Regarding MED23 (UniProt Q9ULK4), the log2 fold change is inactive: 0.041.

In the case of METTL7A (UniProt Q9H8H3), the log2 fold change is inactive: -0.021.

For the target MCM5 (UniProt P33992), the log2 fold change is inactive: 0.033.

Take METTL5 (UniProt Q9NRN9): the log2 fold change was inactive: -0.017.

Take MECR (UniProt Q9BV79): the log2 fold change is inactive: -0.025.

With METTL2B (UniProt Q6P1Q9), the log2 fold change was inactive: -0.074.

Consider MEF2C isoform 5 (UniProt Q06413), for which the log2 fold change is inactive: 0.085.

As for MAT2B (UniProt Q9NZL9), the log2 fold change is inactive: 0.013.

METTL21A (UniProt Q8WXB1): the log2 fold change was inactive: 0.022.

For the target MCM3 isoform 2 (UniProt P25205), the log2 fold change is inactive: 0.029.

In the case of MCCC2 (UniProt Q9HCC0), the log2 fold change is inactive: -0.062.

With METTL6 (UniProt Q8TCB7), the log2 fold change is inactive: 0.041.

With MED18 (UniProt Q9BUE0), the log2 fold change is inactive: 0.088.

Turning to MFAP1 (UniProt P55081), the log2 fold change is inactive: -0.037.

Turning to MCCC1 (UniProt Q96RQ3), the log2 fold change is inactive: 0.039.

Take MGAT4B isoform 3 (UniProt Q9UQ53): the log2 fold change is inactive: -0.228.

With MED14 (UniProt O60244), the log2 fold change was inactive: 0.071.

Consider MFSD10 (UniProt Q14728), for which the log2 fold change is inactive: -0.071.
